Reference: PubChem BioAssay AID488837 (National Center for Advancing Translational Sciences (NCATS), 2010)
About 20 (0.006%) of roughly 330,000 compounds were called active. The shares of active, inactive and inconclusive entries below differ from those in the screen. The call rests on the fitted dose curve; in most records, active means well fitted inhibition curve with a large enough effect; inconclusive means small, poorly fitted or top-dose-only effect, or effect the other way; inactive means flat fitted curve, though single readings scatter. Where the call is inconclusive, the potency comes from a doubtful curve fit.

Sequences of proteins named here, by UniProt entry; tags and fusion partners are left off. A change or cut given only in a name is not applied to a line headed by its entry.
UniProt O00167: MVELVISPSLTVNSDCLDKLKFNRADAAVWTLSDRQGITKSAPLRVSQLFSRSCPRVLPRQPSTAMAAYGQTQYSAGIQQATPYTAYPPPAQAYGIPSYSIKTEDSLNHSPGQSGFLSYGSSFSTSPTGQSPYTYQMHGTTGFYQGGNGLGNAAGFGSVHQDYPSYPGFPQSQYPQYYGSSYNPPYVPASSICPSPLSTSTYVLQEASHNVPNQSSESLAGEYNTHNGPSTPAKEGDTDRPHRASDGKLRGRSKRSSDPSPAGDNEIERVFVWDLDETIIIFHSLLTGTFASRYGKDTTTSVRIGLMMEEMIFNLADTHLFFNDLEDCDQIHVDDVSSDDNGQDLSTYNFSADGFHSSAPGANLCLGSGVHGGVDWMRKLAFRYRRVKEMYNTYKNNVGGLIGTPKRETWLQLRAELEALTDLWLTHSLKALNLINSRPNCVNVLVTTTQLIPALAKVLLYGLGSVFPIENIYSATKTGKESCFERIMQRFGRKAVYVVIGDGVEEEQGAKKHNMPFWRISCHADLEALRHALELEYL

The compounds below were run against Protein phosphatase EYA2 (Homo sapiens) (UniProt O00167) (assay: qHTS Assay for Inhibitors of the Phosphatase Activity of Eya2). Settings: recombinant Eya2, OMFP fluorescence dephosphorylation (OMFP is methylfluorescein phosphate); activity, negative = inhibition: at 76.9 µM (top of the series) unless noted.
In short: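 Eya2 protein (added as 0.2 uM solution) was preincubated with compound for 10 min at ambient temperature in 50 mM HEPES pH 7.5, 50 mM NaCl, 5 uM MgCl2, 0.05% BSA, 1 mM DTT. OMFP (added at 50 uM) then reacted 10 min; fluorescence read at 485/525 nm.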
On the % scale 0 is the no-effect control and ±100 the full control effect; potency means the concentration at half of the fitted maximal effect.

Row | SMILES | Potency | activity, negative = inhibition
1 | C/C(=N\NC(=O)Cc1ccc(Cl)cc1)c1ccccn1 | inconclusive: 112 µM [inhibitor, partial curve, poor fit] | –
2 | CNC(=O)Nc1cc(NC(=O)NC)cc(C(F)(F)F)c1 | inconclusive: 100 µM [inhibitor, single point] | –
3 | COC(=O)[C@@H]1C[C@@H]2CC[C@@H](O)C[C@@H]2N1Cc1ccc(OC)cc1 | inconclusive: 89.1 µM [inhibitor, single point] | –
4 | COc1ccccc1NC(=O)Cc1noc(CSc2nnc(C(F)(F)F)n2C)n1 | inconclusive: 89.1 µM [inhibitor, single point] | –
5 | Nc1nonc1-c1nc2ccccc2n1CC(=O)N1CCCCC1 | inactive | –
6 | N#C/C(=C\c1ccc(OCc2ccc(C(=O)O)cc2)cc1)C(=O)NCc1ccccc1 | inconclusive: 100 µM [inhibitor, single point] | –
7 | Cc1ccccc1NC(=O)c1cc(S(=O)(=O)N2CCOCC2)cn1C | inconclusive: 20 µM [inhibitor, single point] | –
8 | CCOC(=O)N1CCN(C2=C(NS(=O)(=O)c3ccc(C)cc3)C(=O)c3ccccc3C2=O)CC1 | inactive | –
9 | O=C(O)c1ccccc1Nc1cccc(OCc2ccc3ccccc3n2)c1 | inactive | –
10 | CCOC(=O)N1CCN(C/C(Cl)=C/c2ccccc2)CC1 | inconclusive: 126 µM [inhibitor, single point] | –
11 | CCOC(=O)CSc1nc2ccccc2c(=O)n1CC1COc2ccccc2O1 (centres undefined) | inconclusive: 316 µM [inhibitor, single point] | –
12 | CCOC(=O)c1c2c([nH]c(=S)c1C#N)CCCC2 | inconclusive: 3160 µM [inhibitor, partial curve] | –
13 | O=C(NCc1ccco1)C1CCCN(c2nnc(-n3cccc3)s2)C1 (centres undefined) | inactive | –
14 | CC(=O)c1ccc(NC(=S)N2c3ccccc3CC2C)cc1 (centres undefined) | inconclusive: 17.8 µM [inhibitor, single point] | –
15 | CCCn1c(SCC(=O)NC2CCCCC2)nnc1-c1ccco1 | inactive | –
16 | COCCNC(=O)c1ccc(CS(=O)(=O)c2ccccc2OC)o1 | inconclusive: 22.4 µM [inhibitor, single point] | –
17 | N#CC1=C(N)Oc2cc(O)c(Cl)cc2C1c1ccccc1F (centres undefined) | – | inconclusive: 56.6% [activator]
18 | COC(=O)c1cc(-c2cccs2)nn1-c1ccccc1 | inconclusive: 200 µM [inhibitor, partial curve, poor fit] | –
19 | CC(C)(C)c1ccc(C(=O)NNC(=O)c2ccccc2Br)cc1 | inconclusive: 15.8 µM [inhibitor, single point] | –
20 | Cc1cccc(N(C)S(=O)(=O)c2ccc3[nH]cc(C(=O)N4CCOCC4)c(=O)c3c2)c1 | inconclusive: 17.8 µM [inhibitor, single point] | –
21 | N#CC(=C=[N-])/C=C(\C(=O)c1ccccc1)[n+]1ccccc1 | inconclusive: 112 µM [inhibitor, single point] | –
22 | O=C(O)c1ccc2c(c1Sc1ccccc1)C(=O)c1ccccc1C2=O | inconclusive: 100 µM [inhibitor, single point] | –

Some of the entries above, set out differently.

| Row | SMILES | Potency | activity, negative = inhibition |
| --- | --- | --- | --- |
| 10 | CCOC(=O)N1CCN(C/C(Cl)=C/c2ccccc2)CC1 | inconclusive: 126 µM [inhibitor, single point] | – |
| 11 | CCOC(=O)CSc1nc2ccccc2c(=O)n1CC1COc2ccccc2O1 (centres undefined) | inconclusive: 316 µM [inhibitor, single point] | – |
| 12 | CCOC(=O)c1c2c([nH]c(=S)c1C#N)CCCC2 | inconclusive: 3160 µM [inhibitor, partial curve] | – |
| 13 | O=C(NCc1ccco1)C1CCCN(c2nnc(-n3cccc3)s2)C1 (centres undefined) | inactive | – |
| 14 | CC(=O)c1ccc(NC(=S)N2c3ccccc3CC2C)cc1 (centres undefined) | inconclusive: 17.8 µM [inhibitor, single point] | – |
| 15 | CCCn1c(SCC(=O)NC2CCCCC2)nnc1-c1ccco1 | inactive | – |
| 16 | COCCNC(=O)c1ccc(CS(=O)(=O)c2ccccc2OC)o1 | inconclusive: 22.4 µM [inhibitor, single point] | – |
| 17 | N#CC1=C(N)Oc2cc(O)c(Cl)cc2C1c1ccccc1F (centres undefined) | – | inconclusive: 56.6% [activator] |
| 18 | COC(=O)c1cc(-c2cccs2)nn1-c1ccccc1 | inconclusive: 200 µM [inhibitor, partial curve, poor fit] | – |
| 19 | CC(C)(C)c1ccc(C(=O)NNC(=O)c2ccccc2Br)cc1 | inconclusive: 15.8 µM [inhibitor, single point] | – |
| 20 | Cc1cccc(N(C)S(=O)(=O)c2ccc3[nH]cc(C(=O)N4CCOCC4)c(=O)c3c2)c1 | inconclusive: 17.8 µM [inhibitor, single point] | – |
| 21 | N#CC(=C=[N-])/C=C(\C(=O)c1ccccc1)[n+]1ccccc1 | inconclusive: 112 µM [inhibitor, single point] | – |
| 22 | O=C(O)c1ccc2c(c1Sc1ccccc1)C(=O)c1ccccc1C2=O | inconclusive: 100 µM [inhibitor, single point] | – |

(next part)

Row | SMILES | Potency | activity, negative = inhibition
23 | N#Cc1ccc(NC(=O)CSc2cn[nH]n2)cc1 | inconclusive: 25.1 µM [inhibitor, single point] | –
24 | CCN(CC)CCNC(=S)Nc1ccc2nc(N3CCOCC3)cc(C)c2c1 | inconclusive: 100 µM [inhibitor, single point] | –
25 | CCC1CCCCN1C(=S)NC(=O)c1cc(S(=O)(=O)N2CCOCC2)ccc1C (centres undefined) | – | inconclusive: -30.2% [inhibitor]
26 | C/C(N)=C(/C#N)C(=O)COC(=O)c1ccccc1Cc1ccccc1 | inconclusive: 22.4 µM [inhibitor, single point] | –
27 | COc1cccc(CNC(=O)CCn2c(=O)c3cccn3c3cccnc32)c1 | inconclusive: 22.4 µM [inhibitor, single point] | –
28 | Cc1cccn2c(=O)c(C=O)c(N3CCCCC3)nc12 | inconclusive: 112 µM [inhibitor, single point] | –
29 | CSc1sc(C#N)c2c1/C(=N\O)CCC2 | inconclusive: 70.8 µM [inhibitor, single point] | –
30 | O=C(CN1N=C(c2ccc(Cl)cc2)CCC1=O)NCc1cccs1 | inconclusive: 100 µM [inhibitor, single point] | –
31 | COc1ccccc1C(CCNCc1ccccc1)c1ccc(OC(C)C)cc1 (centres undefined) | inactive | –
32 | O=C(NCc1ccc2c(c1)OCO2)C(=O)NCC1OCCN1S(=O)(=O)c1ccc(Cl)cc1 (centres undefined) | inactive | –
33 | COC(=O)C1=C(C)NC2=C(C(=O)CCC2)C1c1cn(Cc2ccc(Cl)cc2Cl)nc1-c1ccccc1 (centres undefined) | inactive | –
34 | CCn1c(SCC(=O)c2ccc(OC)cc2)nnc1C1CC1 | inconclusive: 708 µM [inhibitor, single point] | –
35 | Cn1cccc1-c1cc(C(=O)N/N=C/c2cc(Br)ccc2O)[nH]n1 | inactive | –
36 | O=C(NC(=O)c1c(Cl)cccc1Cl)Nc1ccc(Oc2cccnc2)nc1 | inconclusive: 1260 µM [inhibitor, partial curve, poor fit] | –
37 | O=C(NCCc1c[nH]c2ccccc12)C(F)(F)C(F)F | inconclusive: 178 µM [inhibitor, partial curve] | –
38 | CCC(=O)N(C)CCc1cc2c(c(OC)c1/C=N/NS(=O)(=O)c1ccc(C)cc1)OCO2 | inconclusive: 100 µM [inhibitor, single point] | –
39 | C=CCNC(=S)Nc1sc2c(c1C#N)CCCC2 | inconclusive: 25.1 µM [inhibitor, single point] | –
40 | COc1ccc(N(C(=O)Cn2nnc3ccccc32)C2(C(=O)NC3CCCC3)CCCCC2)cc1 | inconclusive: 20 µM [inhibitor, single point] | –
41 | CN(C)c1ccc(/C=C/C(=O)c2cc(Cl)ccc2O)cc1 | inconclusive: 112 µM [inhibitor, single point] | –
42 | Cc1cc(OCC(=O)OCC(=O)c2ccc[nH]2)ccc1Cl | inactive | –
43 | O=c1oc2ccc(Cl)cc2nc1/C=C(\O)c1ccco1 | inconclusive: 31.6 µM [inhibitor, partial curve, poor fit] | –
44 | Clc1cccc(Cl)c1CNc1ccc(N2CCCC2)cc1 | inconclusive: 89.1 µM [inhibitor, single point] | –
